Binding data for 2 molecules are collected here from publication PMC8716928.

No constants are given. Whether binding was seen depends on the method and setting. In cells and extracts the contact can be indirect. Sequences can lack the tags named with a protein.

For this assay, the target named is Fragment F109–221 of GvpF, split-GFP fusion (Halobacterium salinarum). Kind of assay: split reporter; split-GFP (mGFP2) in Hfx. volcanii transformants, entire Gvp proteins and fragments (Figure 7); arrangement of the GFP portions not stated; relative fluorescence (rf) of cells against untransformed WR340.

B1: GvpA, entire protein, split-GFP fusion (protein, UniProt P08958 1-76)
chain: MAQPDSSGLAEVLDRVLDKGVVVDVWARVSLVGIEILTVEARVVAASVDTFLHYAEEIAKIEQAELTAGAEAAPEA
For B1, the binding entry is recorded as “no binding (tested: rf < 4)”.

B2: Fragment A1–22 of GvpA, split-GFP fusion (peptide, UniProt P08958 1-22)
chain: MAQPDSSGLAEVLDRVLDKGVV
B2: the binding result was “no binding (tested: rf < 4)”.
